In PubChem BioAssay AID624297 (National Center for Advancing Translational Sciences (NCATS), 2012):
Among all 340,000 compounds or so, about 6,200 (1.8%) were called active. The shares of active, inactive and inconclusive entries below differ from those in the screen. Calls come from the whole dose curve; as a rule, active = well fitted activation curve with a large enough effect; inconclusive = small, poorly fitted or top-dose-only effect; inactive = no such curve, though single readings can be large or run the other way. Where the call is inconclusive, the potency comes from a doubtful curve fit.

Experiment: A quantitative high throughput screen for small molecules that induce DNA re-replication in SW480 colon adenocarcinoma cells. For re-replication activation: % of control where 0% means no effect. Note: nearly all actives have a fitted effect of over 55% in size.
Conditions: Hoechst DNA content imaging, 48 h; re-replication activation: at 46.1 µM (top of the series) unless noted
In short: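 250 cells/well; 23 nL cpd via pin tool; 48 hr, 37 C, 5% CO2; Hoechst 40 min; imager read of total nuclear intensity, ex 405/em 500-530 nm.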
Potency is the fitted concentration of half-maximal effect.

SMILES | Potency | re-replication activation
OC(C#Cc1ccccn1)c1cccs1 (stereo not given) | inconclusive: 23.1 µM [activator, single point] | 
CCOC(=O)C(c1ccccc1)C(Nc1ccc(Cl)c(Cl)c1)c1ccccn1 (stereo not given) | inconclusive: 20.6 µM [activator, single point] | 
O=C(Nc1cccc(Cl)c1)c1cncn1-c1ccc(F)cc1 | inconclusive: 18.4 µM [activator, single point] | 
CNc1cc([N+](=O)[O-])ccc1N/C=C/C(=O)c1ccc2c(c1)OCO2 | inconclusive: 29.1 µM [activator, single point] | 
Cc1ccc(S(=O)(=O)NCCC(=O)N2CCC(Cc3ccccc3)CC2)cc1 |  | inactive: 0.192%
CCOc1ccc(CCNC(=O)COC(=O)c2cccc(S(=O)(=O)N3CCCC3)c2)cc1OCC | inconclusive: 0.82 µM [activator, full curve, poor fit] | 
O=C(c1c[nH]c(C(=O)C(Cl)(Cl)Cl)c1)c1c(F)cccc1F | inconclusive: 29.1 µM [activator, single point] | 
Cc1ccc(CNC(=O)c2ccc3c(=O)[nH]c4c(C(=O)NCC5CCCO5)sc(=S)n4c3c2)cc1 (stereo not given) | inconclusive: 5.17 µM [activator, single point] | 
CC1C(=O)N2CCCc3cc(NC(=O)C(=O)NCCc4ccc(F)cc4)cc1c32 (stereo not given) | inconclusive: 6.51 µM [activator, partial curve, poor fit] | 
CCCOc1ccc(CCC(=O)N/N=C/c2ccncc2)cc1 | inconclusive: 32.6 µM [activator, partial curve, poor fit] | 
O=C(CSc1nnc(CNC(=O)c2cccs2)o1)Nc1ccc(F)cc1F |  | inactive: -5.44%
O=C(c1cccs1)N1N=C(c2ccccc2)CC1c1ccccc1O (stereo not given) | inconclusive: 29.1 µM [activator, single point] | 
COc1ccc(/C=C(/C(=O)Nc2ccccc2C(=O)NC(C)C)c2ccccc2)cc1 | inconclusive: 18.4 µM [activator, partial curve, poor fit] | 
Cc1nc2c(sc3nc4c(cc32)COC(C)(C)C4)c(=O)n1CC(=O)NCc1ccco1 | inconclusive: 25.9 µM [activator, single point] | 
O=C(/C=C/c1ccc(Cl)cc1)Nc1ccc(CN2CCOCC2)cc1 | inconclusive: 29.1 µM [activator, single point] | 
CCN(CC)C1=NS(=O)(=O)c2cc([N+](=O)[O-])ccc21 | active: 11.6 µM | 
O=[N+]([O-])c1ccc(Oc2ccc(F)cc2Br)c2ccncc12 | inconclusive: 23.1 µM [activator, single point] | 
O=C(NN=C1CCCCCC1)NC1CCCCC1 | inconclusive: 0.731 µM [activator, partial curve, poor fit] | 
COc1ccc(CN(C(=O)/C=C/C(=O)c2ccc(OC)cc2O)C(C(=O)NC2CCCCC2)c2ccncc2)cc1 (stereo not given) | inconclusive: 23.1 µM [activator, partial curve, poor fit] | 
S=c1[nH]c2ccc(Cc3ccc4[nH]c(=S)[nH]c4c3)cc2[nH]1 | inconclusive: 29.1 µM [activator, single point] | 

Not a retest: an excerpt of the list.
SMILES | Potency | re-replication activation
Cc1ccc(S(=O)(=O)NCCC(=O)N2CCC(Cc3ccccc3)CC2)cc1 |  | inactive: 0.192%
CCOc1ccc(CCNC(=O)COC(=O)c2cccc(S(=O)(=O)N3CCCC3)c2)cc1OCC | inconclusive: 0.82 µM [activator, full curve, poor fit] | 

(next part)

SMILES | Potency | re-replication activation
O=C(/C=C/Nc1ccc(Nc2ccccc2)cc1)c1cccs1 | inconclusive: 29.1 µM [activator, single point] | 
Cc1ccc(S(=O)(=O)Cc2cc(F)c([N+](=O)[O-])cc2[N+](=O)[O-])cc1 | inconclusive: 29.1 µM [activator, single point] | 
COc1ccccc1N(Cc1cc2ccc(C)cc2[nH]c1=O)C(C)=O | inconclusive: 29.1 µM [activator, single point] | 
CNc1ccccc1C(=O)OC(C)C(=O)Nc1ccc(Cl)cn1 (stereo not given) | inconclusive: 18.4 µM [activator, single point] | 
COC(=O)Cc1cc(=O)n(-c2nc3ccccc3[nH]2)[nH]1 | inconclusive: 23.1 µM [activator, partial curve, poor fit] | 
CCN1CCN(C(=O)c2ccc3c(c2)N(Cc2ccc(C)cc2)CCS3)CC1 |  | inconclusive: -35.6% [activator]
CCc1ccc(NC(=S)N2CCC(NC(=O)c3ccccc3OC)CC2)cc1 |  | inactive: -2.85%
COc1ccc2nc(Nc3nc4cc5c(cc4s3)OCO5)sc2c1 | inconclusive: 23.1 µM [activator, single point] | 
C/C(=N\NC(=O)c1ccc(CN(C)S(=O)(=O)c2ccc(C)cc2)cc1)c1ccc(OC(F)F)cc1 |  | inactive: -16.4%
CC(=O)OC(C)(C)/C=C/C(=O)[C@](C)(O)C1[C@H](O)C[C@@]2(C)C3CC=C4C(C=C(O[C@@H]5O[C@H](CO)[C@@H](O)[C@H](O)[C@H]5O)C(=O)C4(C)C)[C@]3(C)C(=O)C[C@]12C (stereo not given in full) | active: 0.92 µM | 
CCOc1ccc(N2CC(C(=O)N3CCc4ccccc4C3)CC2=O)cc1 (stereo not given) |  | inactive: -5.48%
Cc1cccc(N2CCN(C(c3ccccc3)c3nnnn3C(C)(C)C)CC2)c1C (stereo not given) | inconclusive: 25.9 µM [activator, single point] | 
CC(=O)c1sc(NCc2ccccc2)nc1C | inconclusive: 20.6 µM [activator, single point] | 
CCN(CC)CCNC(=O)CSc1c2c(nc3cc(Cl)ccc13)CCCC2 | inconclusive: 23.1 µM [activator, single point] | 
Cc1ccc(CN2CCSc3ccc(C(=O)N4CCN(c5ncccn5)CC4)cc32)cc1 | inconclusive: 32.6 µM [activator, partial curve, poor fit] | 
O=C(CC(c1ccccc1)c1ccccc1O)NCc1ccccc1Cl (stereo not given) |  | inactive: 0.392%
CN(CC(=O)NCCc1ccc(F)cc1)Cc1ccccc1 | inconclusive: 3.26 µM [activator, single point] | 
O=C(CCCN1C(=O)/C(=C\c2cccs2)SC1=S)NNC(=O)c1cccnc1 |  | inactive: -17.3%
COc1ccc(C(CC(=O)O)c2ccc3c(c2)OCO3)cc1 (stereo not given) | inconclusive: 32.6 µM [activator, single point] | 
CC(=NNC(=O)c1cccc(S(=O)(=O)N2CCOCC2)c1)c1ccccc1 | inconclusive: 29.1 µM [activator, single point] | 
